Results: article PMC6414199, “Bim escapes displacement by BH3-mimetic anti-cancer drugs by double-bolt locking both Bcl-XL and Bcl-2” (eLife, 2019)
Results are given in words; binding and its absence hold for the method and conditions named. Binding seen in cells or lysates may run through a third protein. Some results given as binding are weak or reduced against the parent protein; the word gives no strength.

By UniProt entry, the sequences of proteins in these tests, tags left out.
UniProt Q07817: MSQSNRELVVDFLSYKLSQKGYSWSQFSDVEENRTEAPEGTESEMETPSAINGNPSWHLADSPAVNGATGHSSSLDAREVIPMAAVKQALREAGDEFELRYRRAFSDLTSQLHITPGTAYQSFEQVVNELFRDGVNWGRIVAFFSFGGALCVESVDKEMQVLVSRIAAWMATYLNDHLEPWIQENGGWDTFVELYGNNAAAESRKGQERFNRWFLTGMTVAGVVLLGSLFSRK

Target: mCerulean3-Bcl-XL (human) (UniProt Q07817)
Assay: FRET or BRET; FLIM-FRET in live BMK-DKO (Bax and Bak knockout) cells expressing mCer3-Bcl-XL, Venus-tagged BH3 protein transiently expressed; untreated, DMSO or 20 uM ABT-263

binding: binds
Substance: Venus-BimEL (from UniProt O54918-1 1-196)
